Measurements: paper PMC7337498
These are yes or no findings as the source states them, for the method shown. In cells and extracts the contact can be indirect. Binding can be weak; no strength is given. Tags and fused reporters may be left off the sequences shown. Values belong to the molecule of their own block, whether it stands above or below them.

How the values were obtained:
GFP-LUZP1 (human) = molecular target: T1, GFP-LUZP1 (human) (UniProt Q86V48); experiment: co-IP; protein extracts of RPE-1 cells stably expressing GFP fusions; GFP antibody-conjugated Protein G Sepharose beads; endogenous partner detected by Western blot; lysis buffer 50 mM Hepes pH 8, 100 mM KCl, 2 mM EDTA, 10% glycerol, 0.1% NP-40, 1 mM DTT
T1 sequence: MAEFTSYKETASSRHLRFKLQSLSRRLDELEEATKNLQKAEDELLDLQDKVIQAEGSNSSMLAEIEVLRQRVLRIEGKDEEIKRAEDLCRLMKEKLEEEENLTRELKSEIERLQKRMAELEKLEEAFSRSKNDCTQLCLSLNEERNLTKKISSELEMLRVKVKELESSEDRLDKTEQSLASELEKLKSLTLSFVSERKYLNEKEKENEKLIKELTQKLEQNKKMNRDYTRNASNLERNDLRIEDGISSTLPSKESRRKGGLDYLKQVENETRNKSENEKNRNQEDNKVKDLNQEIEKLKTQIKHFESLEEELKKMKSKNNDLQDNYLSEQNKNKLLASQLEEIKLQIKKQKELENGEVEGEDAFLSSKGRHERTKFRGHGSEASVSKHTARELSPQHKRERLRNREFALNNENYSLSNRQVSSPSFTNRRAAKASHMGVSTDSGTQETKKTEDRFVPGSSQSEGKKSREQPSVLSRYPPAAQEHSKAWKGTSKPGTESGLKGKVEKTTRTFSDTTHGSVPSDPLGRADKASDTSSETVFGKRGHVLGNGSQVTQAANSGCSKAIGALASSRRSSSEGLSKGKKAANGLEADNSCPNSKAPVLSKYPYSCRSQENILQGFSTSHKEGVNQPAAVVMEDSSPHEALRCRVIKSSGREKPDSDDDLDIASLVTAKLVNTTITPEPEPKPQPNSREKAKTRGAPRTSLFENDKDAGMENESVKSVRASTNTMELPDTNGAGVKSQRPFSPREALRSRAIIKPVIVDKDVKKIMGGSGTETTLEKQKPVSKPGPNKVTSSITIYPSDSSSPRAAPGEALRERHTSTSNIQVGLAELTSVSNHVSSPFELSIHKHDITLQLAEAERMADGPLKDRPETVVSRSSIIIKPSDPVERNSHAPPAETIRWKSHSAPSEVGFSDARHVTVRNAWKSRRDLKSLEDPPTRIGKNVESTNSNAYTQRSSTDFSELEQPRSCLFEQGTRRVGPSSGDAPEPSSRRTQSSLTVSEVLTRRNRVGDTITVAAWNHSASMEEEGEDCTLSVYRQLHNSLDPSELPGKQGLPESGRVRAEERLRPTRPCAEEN

[1] = molecular target: GFP-EPLINβ (HEK293) (human); experiment: co-IP; extracts of HEK293 stable/inducible lines expressing FLAG-LUZP1 constructs and GFP-EPLINβ; GFP antibody-conjugated beads; FLAG fusions detected by Western blot

B1: FLAG-LUZP1 (full length) (protein, UniProt Q86V48-1 1-1076)
chain: T1 sequence
- binding [1]: binds

B2: FLAG-LUZP1 (aa 297–1,076) (domain or fragment, UniProt Q86V48-1 297-1076)
chain: KLKTQIKHFESLEEELKKMKSKNNDLQDNYLSEQNKNKLLASQLEEIKLQIKKQKELENGEVEGEDAFLSSKGRHERTKFRGHGSEASVSKHTARELSPQHKRERLRNREFALNNENYSLSNRQVSSPSFTNRRAAKASHMGVSTDSGTQETKKTEDRFVPGSSQSEGKKSREQPSVLSRYPPAAQEHSKAWKGTSKPGTESGLKGKVEKTTRTFSDTTHGSVPSDPLGRADKASDTSSETVFGKRGHVLGNGSQVTQAANSGCSKAIGALASSRRSSSEGLSKGKKAANGLEADNSCPNSKAPVLSKYPYSCRSQENILQGFSTSHKEGVNQPAAVVMEDSSPHEALRCRVIKSSGREKPDSDDDLDIASLVTAKLVNTTITPEPEPKPQPNSREKAKTRGAPRTSLFENDKDAGMENESVKSVRASTNTMELPDTNGAGVKSQRPFSPREALRSRAIIKPVIVDKDVKKIMGGSGTETTLEKQKPVSKPGPNKVTSSITIYPSDSSSPRAAPGEALRERHTSTSNIQVGLAELTSVSNHVSSPFELSIHKHDITLQLAEAERMADGPLKDRPETVVSRSSIIIKPSDPVERNSHAPPAETIRWKSHSAPSEVGFSDARHVTVRNAWKSRRDLKSLEDPPTRIGKNVESTNSNAYTQRSSTDFSELEQPRSCLFEQGTRRVGPSSGDAPEPSSRRTQSSLTVSEVLTRRNRVGDTITVAAWNHSASMEEEGEDCTLSVYRQLHNSLDPSELPGKQGLPESGRVRAEERLRPTRPCAEEN
- binding [1]: binds

B3: FLAG-LUZP1 (aa 1–296) (domain or fragment, UniProt Q86V48-1 1-296)
chain: MAEFTSYKETASSRHLRFKLQSLSRRLDELEEATKNLQKAEDELLDLQDKVIQAEGSNSSMLAEIEVLRQRVLRIEGKDEEIKRAEDLCRLMKEKLEEEENLTRELKSEIERLQKRMAELEKLEEAFSRSKNDCTQLCLSLNEERNLTKKISSELEMLRVKVKELESSEDRLDKTEQSLASELEKLKSLTLSFVSERKYLNEKEKENEKLIKELTQKLEQNKKMNRDYTRNASNLERNDLRIEDGISSTLPSKESRRKGGLDYLKQVENETRNKSENEKNRNQEDNKVKDLNQEIE
- binding [1]: no binding

Results, then the molecule that gave them:

- binding (GFP-LUZP1 (human)): binds
Molecule: endogenous EPLINα (RPE-1) (human (endogenous in RPE-1))

- binding (GFP-LUZP1 (human)): binds
Molecule: endogenous EPLINβ (RPE-1) (human (endogenous in RPE-1))
